Test results: the supplement of paper PMC10849652
The other results are listed elsewhere or left out.

Chains of the proteins cited; added tags and fusions are not shown. Lines headed by an entry give the natural chain unless they say otherwise; changes in a name come on top.
UniProt Q13049: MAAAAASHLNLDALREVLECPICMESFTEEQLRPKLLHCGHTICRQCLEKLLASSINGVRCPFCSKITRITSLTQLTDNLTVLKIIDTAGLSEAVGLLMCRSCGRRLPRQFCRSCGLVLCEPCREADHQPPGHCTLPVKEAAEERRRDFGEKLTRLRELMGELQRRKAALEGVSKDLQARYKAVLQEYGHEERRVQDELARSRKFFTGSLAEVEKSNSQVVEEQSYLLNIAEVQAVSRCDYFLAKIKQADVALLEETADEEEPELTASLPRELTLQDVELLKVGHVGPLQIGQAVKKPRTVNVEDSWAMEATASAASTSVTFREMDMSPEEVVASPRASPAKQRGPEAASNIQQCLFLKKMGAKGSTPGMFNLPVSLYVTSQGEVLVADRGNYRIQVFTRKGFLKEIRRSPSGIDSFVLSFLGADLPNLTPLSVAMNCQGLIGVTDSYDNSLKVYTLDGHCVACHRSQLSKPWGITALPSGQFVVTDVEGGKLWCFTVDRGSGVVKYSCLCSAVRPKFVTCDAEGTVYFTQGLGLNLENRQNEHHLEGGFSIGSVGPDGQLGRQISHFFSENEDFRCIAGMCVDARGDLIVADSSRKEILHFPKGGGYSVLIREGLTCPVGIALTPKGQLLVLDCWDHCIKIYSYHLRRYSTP
UniProt Q9H3H1: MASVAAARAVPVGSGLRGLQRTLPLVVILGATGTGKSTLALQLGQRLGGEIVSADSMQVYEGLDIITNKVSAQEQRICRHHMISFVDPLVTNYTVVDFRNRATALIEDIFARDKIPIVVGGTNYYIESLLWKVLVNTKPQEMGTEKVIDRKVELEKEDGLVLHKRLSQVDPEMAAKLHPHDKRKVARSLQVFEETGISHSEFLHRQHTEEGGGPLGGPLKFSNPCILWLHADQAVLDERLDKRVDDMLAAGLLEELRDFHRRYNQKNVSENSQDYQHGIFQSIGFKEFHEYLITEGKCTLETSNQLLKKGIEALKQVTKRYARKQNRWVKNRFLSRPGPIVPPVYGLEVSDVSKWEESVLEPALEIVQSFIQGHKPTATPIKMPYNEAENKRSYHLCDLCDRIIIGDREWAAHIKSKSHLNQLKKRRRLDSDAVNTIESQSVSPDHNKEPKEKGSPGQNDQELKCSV
UniProt Q9UNY4: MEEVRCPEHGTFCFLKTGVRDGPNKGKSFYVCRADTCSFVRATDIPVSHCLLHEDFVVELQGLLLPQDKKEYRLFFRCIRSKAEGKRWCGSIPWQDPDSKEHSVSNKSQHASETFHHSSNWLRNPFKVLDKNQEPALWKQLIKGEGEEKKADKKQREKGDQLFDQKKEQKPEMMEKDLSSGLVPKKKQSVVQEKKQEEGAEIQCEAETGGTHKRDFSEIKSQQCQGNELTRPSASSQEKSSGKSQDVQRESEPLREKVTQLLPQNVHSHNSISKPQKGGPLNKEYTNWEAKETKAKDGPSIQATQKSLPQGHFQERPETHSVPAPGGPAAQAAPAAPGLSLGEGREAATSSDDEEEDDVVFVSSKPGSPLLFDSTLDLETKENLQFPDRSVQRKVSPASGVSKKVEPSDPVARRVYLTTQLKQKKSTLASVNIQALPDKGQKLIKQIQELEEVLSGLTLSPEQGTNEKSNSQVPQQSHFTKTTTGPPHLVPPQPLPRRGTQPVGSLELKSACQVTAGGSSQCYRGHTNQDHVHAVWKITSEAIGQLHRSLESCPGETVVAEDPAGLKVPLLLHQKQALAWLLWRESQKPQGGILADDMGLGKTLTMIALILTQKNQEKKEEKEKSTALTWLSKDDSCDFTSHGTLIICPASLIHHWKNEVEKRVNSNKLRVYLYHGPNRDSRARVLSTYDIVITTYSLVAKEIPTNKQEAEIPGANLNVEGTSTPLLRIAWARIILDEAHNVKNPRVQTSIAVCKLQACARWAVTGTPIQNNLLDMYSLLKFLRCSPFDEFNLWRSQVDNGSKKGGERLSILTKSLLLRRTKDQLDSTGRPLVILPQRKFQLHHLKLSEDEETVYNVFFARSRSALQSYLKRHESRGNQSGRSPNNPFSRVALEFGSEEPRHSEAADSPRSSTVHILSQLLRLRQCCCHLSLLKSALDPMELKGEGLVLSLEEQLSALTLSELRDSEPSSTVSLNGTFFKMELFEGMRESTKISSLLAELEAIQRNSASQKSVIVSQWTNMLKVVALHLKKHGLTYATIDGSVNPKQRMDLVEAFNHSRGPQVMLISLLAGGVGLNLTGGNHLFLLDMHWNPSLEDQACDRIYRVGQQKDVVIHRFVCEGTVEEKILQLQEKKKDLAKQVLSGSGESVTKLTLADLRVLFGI
UniProt Q9Y4K3: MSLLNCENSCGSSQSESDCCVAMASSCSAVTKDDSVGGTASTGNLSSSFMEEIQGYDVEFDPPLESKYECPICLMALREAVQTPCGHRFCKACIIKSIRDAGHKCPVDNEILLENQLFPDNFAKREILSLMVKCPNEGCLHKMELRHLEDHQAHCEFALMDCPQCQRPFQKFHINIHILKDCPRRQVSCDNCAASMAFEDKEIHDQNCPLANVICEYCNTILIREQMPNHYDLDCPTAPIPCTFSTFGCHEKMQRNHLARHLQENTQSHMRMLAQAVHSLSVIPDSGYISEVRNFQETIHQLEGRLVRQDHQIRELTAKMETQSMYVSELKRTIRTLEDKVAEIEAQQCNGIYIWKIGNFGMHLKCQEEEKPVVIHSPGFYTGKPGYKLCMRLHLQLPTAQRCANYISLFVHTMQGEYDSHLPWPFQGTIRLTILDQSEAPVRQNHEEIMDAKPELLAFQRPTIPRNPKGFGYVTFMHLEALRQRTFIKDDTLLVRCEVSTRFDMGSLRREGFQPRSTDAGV
UniProt Q9C037: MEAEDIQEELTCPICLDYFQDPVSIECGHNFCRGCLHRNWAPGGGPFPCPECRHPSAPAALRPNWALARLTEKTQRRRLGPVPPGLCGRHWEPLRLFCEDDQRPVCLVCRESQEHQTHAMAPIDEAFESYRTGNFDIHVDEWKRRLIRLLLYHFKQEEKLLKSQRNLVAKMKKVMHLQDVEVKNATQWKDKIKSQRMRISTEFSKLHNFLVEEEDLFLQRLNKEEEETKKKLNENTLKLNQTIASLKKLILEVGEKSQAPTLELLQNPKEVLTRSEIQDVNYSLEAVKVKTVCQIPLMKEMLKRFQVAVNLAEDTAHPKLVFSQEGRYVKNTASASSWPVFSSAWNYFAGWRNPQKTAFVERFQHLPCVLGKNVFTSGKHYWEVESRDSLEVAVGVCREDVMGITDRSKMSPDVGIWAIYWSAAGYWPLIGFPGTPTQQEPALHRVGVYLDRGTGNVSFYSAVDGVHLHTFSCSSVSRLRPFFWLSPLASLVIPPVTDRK
UniProt O75157: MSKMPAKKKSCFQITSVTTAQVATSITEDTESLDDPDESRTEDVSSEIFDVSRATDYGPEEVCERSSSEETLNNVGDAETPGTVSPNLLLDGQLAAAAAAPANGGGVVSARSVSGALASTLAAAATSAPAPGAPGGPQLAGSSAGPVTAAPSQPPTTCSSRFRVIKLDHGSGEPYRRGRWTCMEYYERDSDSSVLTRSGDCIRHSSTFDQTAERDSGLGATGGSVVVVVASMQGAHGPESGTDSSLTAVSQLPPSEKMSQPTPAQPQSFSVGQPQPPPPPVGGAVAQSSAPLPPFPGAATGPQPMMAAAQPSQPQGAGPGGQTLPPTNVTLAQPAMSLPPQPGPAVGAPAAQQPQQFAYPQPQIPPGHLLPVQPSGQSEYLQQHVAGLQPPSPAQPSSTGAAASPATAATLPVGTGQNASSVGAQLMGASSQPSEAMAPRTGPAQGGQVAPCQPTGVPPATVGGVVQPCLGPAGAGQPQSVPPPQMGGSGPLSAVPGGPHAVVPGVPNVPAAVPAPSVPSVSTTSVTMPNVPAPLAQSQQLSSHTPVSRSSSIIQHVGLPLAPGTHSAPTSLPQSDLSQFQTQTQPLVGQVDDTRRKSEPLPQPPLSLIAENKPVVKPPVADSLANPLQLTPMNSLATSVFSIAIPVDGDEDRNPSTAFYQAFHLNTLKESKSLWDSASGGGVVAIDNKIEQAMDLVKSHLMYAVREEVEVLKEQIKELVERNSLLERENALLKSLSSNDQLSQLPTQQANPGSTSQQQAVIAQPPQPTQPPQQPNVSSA
UniProt Q5R3I4: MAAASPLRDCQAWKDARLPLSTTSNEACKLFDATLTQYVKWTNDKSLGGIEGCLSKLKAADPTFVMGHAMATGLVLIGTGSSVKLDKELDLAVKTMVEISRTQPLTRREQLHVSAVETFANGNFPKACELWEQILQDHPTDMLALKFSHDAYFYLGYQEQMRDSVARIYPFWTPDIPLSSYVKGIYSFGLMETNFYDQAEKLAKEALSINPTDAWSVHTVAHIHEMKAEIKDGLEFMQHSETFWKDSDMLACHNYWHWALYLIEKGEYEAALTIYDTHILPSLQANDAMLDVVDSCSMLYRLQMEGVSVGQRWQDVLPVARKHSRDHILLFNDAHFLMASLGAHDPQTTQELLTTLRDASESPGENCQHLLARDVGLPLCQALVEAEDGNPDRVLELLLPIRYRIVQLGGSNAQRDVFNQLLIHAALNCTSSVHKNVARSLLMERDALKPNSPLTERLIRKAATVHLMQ
UniProt Q86SZ2: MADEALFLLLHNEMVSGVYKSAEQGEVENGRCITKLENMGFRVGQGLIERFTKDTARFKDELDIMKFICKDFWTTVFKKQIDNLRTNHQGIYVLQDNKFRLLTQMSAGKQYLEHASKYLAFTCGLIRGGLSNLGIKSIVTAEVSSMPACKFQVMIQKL
UniProt Q32P41: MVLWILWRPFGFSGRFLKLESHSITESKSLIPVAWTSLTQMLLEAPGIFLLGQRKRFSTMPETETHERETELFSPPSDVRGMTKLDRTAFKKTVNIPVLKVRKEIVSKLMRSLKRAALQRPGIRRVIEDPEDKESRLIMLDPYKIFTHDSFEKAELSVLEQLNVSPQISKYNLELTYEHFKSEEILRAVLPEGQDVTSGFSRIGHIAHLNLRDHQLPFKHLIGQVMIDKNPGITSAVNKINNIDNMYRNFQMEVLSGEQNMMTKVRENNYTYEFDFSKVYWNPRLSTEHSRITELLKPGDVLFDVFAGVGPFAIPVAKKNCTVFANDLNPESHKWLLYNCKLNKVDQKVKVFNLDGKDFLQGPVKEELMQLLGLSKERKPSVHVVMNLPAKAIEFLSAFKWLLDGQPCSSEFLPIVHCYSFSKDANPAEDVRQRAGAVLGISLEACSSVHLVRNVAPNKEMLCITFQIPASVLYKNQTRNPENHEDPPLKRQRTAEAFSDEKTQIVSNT

Assays:
Experiment in all cases: log2 fold change, soluble protein after heating vs DMSO (PISA); higher = thermal stabilisation; K562 lysate, 10 uM; active = over 0.2 and 3.5 SD of the protein, either way, in both replicates (recomputed)
[1] = compound: C1=CC=C(C=C1)[C@H](COC2=CC3=C(C=C2)NC(=O)N3)NC(=O)C4=CC=CN(C4=O)CC5=CC(=C(C=C5)F)F
Method in brief: (§1)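 K562 pellets were dounce-homogenised in PBS pH 7.4 containing 1 mM MgCl2, and the crude extract, at 1 mg/mL protein, was exposed to 10 μM compound for 30 min. Aliquots were heated for 3 min across 48°C-58°C, pooled, brought to 0.5% NP-40 at 4°C and spun at 21,000xg for 90 min, with the supernatant taken as soluble protein. TMTpro 16plex LC-MS/MS with equalised channel sums quantified that protein. Values are log-two fold changes in thermal stability relative to solvent controls, taken from duplicates.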

[2] = compound: CC1=C(SC2=C1C(=N[C@H](C3=NN=C(N32)C)CC(=O)N)C4=CC=C(C=C4)Cl)C
Method in brief: as §1

[3] = compound: CC1=C2C(=CC=C1)N=C(N(C2=O)C3=CC=CC=C3C)CN4C=NC5=C(N=CN=C54)N
Method in brief: as §1

[4] = compound: Cc1sc2c(c1C)C(c1ccc(Cl)cc1)=N[C@@H](CC(=O)OC(C)(C)C)c1nnc(C)n1-2
Method in brief: as §1

[5] = compound: c1ccc([C@@H]2C[C@H]2NC2CCNCC2)cc1
Method in brief: as §1

Measured: log2 fold change

TRIM32 (UniProt Q13049)
inactive: [1] -0.026 | [2] 0.024 | [3] 0.014 | [4] -0.091 | [5] 0.017

TRIT1 (UniProt Q9H3H1)
inactive: [1] -0.029 | [2] -0.088 | [3] 0.025 | [4] -0.07 | [5] 0.037

TTF2 (UniProt Q9UNY4)
inactive: [1] -0.092 | [2] 0.029 | [3] 0.003 | [4] 0.127 | [5] 0.003

TRAF6 (UniProt Q9Y4K3)
inactive: [1] 0.052 | [2] -0.003 | [3] -0.023 | [4] 0.009 | [5] -0.01

TRIM4 (UniProt Q9C037)
inactive: [1] -0.058 | [2] 0.143 | [3] 0.146 | [4] -0.019 | [5] 0.06

TSC22D2 (UniProt O75157)
inactive: [1] -0.033 | [2] 0.023 | [3] 0.009 | [4] 0.047 | [5] -0.066

TTC38 (UniProt Q5R3I4)
inactive: [1] -0.001 | [2] 0 | [3] 0.05 | [4] 0.003 | [5] 0.126

TRAPPC6B (UniProt Q86SZ2)
inactive: [1] 0 | [2] -0.02 | [3] 0.023 | [4] 0.024 | [5] -0.038

TRMT5 (UniProt Q32P41)
inactive: [1] -0.009 | [2] -0.01 | [3] 0.046 | [4] 0.021 | [5] -0.014
